Assay [1] has as its target Insulin like growth factor 1 receptor (IGF-1R) of CHO cells (Chinese hamster). Kind of assay: FACS staining of pZFN-transfected CHO-DUXB11 derivative cells with the labelled ligand.
For assay [2] the target is unchanged. The assay can be described thus: FACS staining and sorting of shRNA-transfected CHO-DUXB11 derived cells with the labelled ligand.

These are yes or no findings as the source states them, for the method shown. Some entries that bind do so weakly or less than the wild type.

As for “Cy5 labeled hIGF-1Ea 3mut (from UniProt P17647 29-130) (ligand)”, the binding entry in assay [1] and in assay [2] was “binds” throughout.

The values are drawn from US20150322131A1.
